No constants are given. Whether binding was seen depends on the method and setting. Binding seen in cells or lysates may run through a third protein. These calls come from enrichment with a bait or labelling near it, and not all partners need be listed.
What follows are substances tested against Engulfment and cell motility protein 1 (human (endogenous in MSC)) (UniProt Q92556) (assay: co-IP + affinity purification with mass spectrometry; MSC protein extract (HC-MSC and AS-MSC) incubated with an anti-ELMO1 antibody (1:100) or IgG control at 4 °C overnight, protein G agarose beads for another 4 h; immunoprecipitants collected for LC-MS/MS and western blotting).

The chains behind the UniProt entries cited, without tags or fusion partners.
UniProt Q92556: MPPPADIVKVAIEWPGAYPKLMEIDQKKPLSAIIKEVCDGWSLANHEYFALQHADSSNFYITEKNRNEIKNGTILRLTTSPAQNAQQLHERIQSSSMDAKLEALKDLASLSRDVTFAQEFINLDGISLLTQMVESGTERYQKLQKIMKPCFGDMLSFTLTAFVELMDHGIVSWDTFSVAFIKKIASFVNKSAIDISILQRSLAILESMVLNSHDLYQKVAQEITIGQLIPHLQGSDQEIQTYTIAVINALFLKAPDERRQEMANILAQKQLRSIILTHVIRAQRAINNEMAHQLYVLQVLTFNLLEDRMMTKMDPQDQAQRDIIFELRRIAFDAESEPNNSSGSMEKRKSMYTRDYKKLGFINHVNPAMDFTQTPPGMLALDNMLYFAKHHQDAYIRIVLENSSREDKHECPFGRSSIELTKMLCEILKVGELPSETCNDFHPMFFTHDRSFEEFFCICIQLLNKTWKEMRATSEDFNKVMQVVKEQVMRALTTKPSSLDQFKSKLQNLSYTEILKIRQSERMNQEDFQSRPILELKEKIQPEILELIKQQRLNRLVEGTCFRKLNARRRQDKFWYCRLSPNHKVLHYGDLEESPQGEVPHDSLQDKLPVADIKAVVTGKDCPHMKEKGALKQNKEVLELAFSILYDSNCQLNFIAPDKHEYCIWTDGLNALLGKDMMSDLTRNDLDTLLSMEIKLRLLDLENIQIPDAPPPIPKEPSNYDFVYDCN
UniProt Q8N1I0: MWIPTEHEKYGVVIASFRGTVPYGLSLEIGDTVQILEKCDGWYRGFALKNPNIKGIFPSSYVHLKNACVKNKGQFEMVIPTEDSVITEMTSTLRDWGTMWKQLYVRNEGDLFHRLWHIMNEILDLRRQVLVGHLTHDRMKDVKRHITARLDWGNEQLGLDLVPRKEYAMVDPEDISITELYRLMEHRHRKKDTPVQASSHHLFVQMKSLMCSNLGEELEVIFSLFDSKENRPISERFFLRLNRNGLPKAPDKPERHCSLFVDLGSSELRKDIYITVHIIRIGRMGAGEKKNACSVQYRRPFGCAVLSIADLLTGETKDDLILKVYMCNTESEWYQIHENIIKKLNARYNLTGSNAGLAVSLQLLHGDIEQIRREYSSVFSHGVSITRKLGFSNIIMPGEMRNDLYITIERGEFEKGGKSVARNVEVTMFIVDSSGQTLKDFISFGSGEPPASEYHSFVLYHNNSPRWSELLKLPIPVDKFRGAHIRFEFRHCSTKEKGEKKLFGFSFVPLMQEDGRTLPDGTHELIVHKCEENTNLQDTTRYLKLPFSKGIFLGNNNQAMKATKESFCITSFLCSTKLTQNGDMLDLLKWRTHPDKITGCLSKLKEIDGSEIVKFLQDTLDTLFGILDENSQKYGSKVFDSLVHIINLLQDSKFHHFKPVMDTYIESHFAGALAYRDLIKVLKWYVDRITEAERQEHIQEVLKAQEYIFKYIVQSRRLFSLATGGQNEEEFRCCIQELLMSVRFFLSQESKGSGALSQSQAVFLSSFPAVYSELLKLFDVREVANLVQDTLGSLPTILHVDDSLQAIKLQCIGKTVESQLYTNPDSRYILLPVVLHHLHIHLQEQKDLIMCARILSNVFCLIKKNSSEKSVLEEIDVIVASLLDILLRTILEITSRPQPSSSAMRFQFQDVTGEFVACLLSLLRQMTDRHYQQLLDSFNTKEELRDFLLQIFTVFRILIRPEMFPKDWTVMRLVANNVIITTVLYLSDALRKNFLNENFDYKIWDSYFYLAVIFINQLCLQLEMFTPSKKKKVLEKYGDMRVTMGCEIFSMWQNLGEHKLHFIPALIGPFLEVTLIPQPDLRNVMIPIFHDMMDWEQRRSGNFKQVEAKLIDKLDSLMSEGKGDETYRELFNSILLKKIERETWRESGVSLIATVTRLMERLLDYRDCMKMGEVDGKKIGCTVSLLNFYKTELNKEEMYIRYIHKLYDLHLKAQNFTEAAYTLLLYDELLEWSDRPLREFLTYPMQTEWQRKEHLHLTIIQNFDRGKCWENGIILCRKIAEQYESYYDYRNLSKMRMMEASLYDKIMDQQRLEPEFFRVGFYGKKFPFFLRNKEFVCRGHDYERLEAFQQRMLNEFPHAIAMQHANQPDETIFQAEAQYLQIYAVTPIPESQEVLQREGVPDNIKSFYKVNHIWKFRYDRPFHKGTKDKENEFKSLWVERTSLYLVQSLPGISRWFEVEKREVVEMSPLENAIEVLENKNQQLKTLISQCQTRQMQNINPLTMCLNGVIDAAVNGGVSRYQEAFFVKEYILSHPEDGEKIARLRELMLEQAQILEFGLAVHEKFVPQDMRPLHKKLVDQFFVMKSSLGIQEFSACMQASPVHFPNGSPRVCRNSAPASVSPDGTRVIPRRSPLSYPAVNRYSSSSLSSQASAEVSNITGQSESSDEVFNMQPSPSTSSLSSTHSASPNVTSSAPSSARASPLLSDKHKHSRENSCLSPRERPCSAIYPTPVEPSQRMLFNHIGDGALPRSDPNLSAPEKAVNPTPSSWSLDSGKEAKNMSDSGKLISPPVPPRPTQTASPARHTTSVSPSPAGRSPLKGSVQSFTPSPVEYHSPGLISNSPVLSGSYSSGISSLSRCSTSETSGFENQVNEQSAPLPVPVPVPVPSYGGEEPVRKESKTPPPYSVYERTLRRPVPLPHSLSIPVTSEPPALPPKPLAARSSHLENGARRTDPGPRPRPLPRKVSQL
UniProt Q9H7D0: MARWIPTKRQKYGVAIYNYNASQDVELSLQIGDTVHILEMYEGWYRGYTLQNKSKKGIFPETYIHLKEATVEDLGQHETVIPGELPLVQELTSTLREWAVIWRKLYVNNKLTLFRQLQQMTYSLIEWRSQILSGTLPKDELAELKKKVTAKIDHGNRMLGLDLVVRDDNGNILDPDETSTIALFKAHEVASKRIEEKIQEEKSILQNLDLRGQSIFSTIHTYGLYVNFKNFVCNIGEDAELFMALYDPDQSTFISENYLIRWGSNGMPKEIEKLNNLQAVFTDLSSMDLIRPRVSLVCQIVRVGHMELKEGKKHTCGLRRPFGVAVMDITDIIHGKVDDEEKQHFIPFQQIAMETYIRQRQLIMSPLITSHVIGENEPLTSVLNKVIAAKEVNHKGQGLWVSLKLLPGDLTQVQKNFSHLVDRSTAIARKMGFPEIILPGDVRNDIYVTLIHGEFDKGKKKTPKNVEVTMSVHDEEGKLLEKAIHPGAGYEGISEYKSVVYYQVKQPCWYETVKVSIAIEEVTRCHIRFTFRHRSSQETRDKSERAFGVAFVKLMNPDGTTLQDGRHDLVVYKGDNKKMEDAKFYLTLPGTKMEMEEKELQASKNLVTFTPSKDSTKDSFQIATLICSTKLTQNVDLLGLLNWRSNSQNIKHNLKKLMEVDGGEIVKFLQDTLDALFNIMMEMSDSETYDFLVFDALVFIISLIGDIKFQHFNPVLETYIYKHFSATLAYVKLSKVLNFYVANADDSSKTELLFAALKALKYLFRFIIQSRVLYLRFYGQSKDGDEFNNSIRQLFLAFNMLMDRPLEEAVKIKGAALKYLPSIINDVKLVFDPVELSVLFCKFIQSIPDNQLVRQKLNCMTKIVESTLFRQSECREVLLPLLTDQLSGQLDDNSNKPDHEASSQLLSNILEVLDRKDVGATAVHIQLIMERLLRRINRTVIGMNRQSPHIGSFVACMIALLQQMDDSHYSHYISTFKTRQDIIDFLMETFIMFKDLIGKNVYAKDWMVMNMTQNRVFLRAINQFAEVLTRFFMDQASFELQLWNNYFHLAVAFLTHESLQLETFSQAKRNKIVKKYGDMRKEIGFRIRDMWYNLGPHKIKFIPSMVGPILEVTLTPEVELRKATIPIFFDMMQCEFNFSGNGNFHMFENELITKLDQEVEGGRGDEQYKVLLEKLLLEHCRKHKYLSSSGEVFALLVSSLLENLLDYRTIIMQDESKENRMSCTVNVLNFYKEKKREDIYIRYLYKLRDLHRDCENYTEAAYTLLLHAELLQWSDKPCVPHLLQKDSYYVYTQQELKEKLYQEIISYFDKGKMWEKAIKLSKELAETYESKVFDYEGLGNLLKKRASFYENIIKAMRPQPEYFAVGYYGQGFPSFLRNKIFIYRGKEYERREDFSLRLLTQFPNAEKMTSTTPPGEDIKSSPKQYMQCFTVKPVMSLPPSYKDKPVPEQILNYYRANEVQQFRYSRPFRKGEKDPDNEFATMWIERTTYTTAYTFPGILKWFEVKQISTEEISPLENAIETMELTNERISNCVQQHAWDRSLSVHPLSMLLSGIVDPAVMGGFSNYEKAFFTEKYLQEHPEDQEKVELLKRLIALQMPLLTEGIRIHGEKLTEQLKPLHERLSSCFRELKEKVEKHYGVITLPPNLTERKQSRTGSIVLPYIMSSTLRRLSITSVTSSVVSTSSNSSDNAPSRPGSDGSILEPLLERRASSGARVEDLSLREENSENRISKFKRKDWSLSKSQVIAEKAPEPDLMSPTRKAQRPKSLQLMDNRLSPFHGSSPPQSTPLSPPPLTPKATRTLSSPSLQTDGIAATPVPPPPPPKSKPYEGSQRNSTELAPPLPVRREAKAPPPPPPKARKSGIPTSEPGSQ
UniProt Q9Y2A7: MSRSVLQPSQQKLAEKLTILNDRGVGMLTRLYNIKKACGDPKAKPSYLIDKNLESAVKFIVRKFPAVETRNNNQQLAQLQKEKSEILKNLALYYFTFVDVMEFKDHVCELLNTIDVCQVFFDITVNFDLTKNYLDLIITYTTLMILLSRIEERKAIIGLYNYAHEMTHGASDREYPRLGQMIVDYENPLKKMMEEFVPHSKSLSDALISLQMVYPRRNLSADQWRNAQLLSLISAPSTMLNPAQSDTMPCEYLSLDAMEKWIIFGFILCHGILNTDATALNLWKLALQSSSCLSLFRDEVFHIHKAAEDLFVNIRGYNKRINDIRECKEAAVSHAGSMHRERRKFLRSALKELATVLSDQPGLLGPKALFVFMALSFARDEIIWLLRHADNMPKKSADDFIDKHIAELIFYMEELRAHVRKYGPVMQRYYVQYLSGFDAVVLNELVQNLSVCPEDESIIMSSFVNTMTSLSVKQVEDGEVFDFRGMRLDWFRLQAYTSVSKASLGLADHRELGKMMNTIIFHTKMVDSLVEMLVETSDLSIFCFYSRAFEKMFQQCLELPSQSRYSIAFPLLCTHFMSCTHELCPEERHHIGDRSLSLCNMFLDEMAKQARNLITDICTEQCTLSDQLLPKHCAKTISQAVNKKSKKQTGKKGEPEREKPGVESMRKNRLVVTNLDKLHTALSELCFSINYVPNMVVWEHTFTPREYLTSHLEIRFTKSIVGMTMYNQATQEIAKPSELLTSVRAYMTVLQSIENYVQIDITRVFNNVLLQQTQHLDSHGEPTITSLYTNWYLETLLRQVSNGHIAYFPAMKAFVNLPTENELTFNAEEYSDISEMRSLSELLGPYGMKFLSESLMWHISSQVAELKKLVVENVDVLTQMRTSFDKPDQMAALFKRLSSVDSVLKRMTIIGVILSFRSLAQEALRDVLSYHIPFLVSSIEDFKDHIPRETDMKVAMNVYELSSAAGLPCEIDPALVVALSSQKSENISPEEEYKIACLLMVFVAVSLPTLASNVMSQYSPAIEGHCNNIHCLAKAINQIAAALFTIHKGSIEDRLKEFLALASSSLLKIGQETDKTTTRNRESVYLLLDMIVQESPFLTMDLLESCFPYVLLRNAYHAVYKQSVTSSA

binding, binds:
DOCK4 (from UniProt Q8N1I0 1-1966)
DOCK5 (from UniProt Q9H7D0 1-1870)
NCKAP1 (from UniProt Q9Y2A7 1-1128)

From publication PMC8433149
